# Test results taken from article PMC6593079.
# Chains of the proteins cited; added tags and fusions are not shown. Residues count along the entry.
# UniProt P35570: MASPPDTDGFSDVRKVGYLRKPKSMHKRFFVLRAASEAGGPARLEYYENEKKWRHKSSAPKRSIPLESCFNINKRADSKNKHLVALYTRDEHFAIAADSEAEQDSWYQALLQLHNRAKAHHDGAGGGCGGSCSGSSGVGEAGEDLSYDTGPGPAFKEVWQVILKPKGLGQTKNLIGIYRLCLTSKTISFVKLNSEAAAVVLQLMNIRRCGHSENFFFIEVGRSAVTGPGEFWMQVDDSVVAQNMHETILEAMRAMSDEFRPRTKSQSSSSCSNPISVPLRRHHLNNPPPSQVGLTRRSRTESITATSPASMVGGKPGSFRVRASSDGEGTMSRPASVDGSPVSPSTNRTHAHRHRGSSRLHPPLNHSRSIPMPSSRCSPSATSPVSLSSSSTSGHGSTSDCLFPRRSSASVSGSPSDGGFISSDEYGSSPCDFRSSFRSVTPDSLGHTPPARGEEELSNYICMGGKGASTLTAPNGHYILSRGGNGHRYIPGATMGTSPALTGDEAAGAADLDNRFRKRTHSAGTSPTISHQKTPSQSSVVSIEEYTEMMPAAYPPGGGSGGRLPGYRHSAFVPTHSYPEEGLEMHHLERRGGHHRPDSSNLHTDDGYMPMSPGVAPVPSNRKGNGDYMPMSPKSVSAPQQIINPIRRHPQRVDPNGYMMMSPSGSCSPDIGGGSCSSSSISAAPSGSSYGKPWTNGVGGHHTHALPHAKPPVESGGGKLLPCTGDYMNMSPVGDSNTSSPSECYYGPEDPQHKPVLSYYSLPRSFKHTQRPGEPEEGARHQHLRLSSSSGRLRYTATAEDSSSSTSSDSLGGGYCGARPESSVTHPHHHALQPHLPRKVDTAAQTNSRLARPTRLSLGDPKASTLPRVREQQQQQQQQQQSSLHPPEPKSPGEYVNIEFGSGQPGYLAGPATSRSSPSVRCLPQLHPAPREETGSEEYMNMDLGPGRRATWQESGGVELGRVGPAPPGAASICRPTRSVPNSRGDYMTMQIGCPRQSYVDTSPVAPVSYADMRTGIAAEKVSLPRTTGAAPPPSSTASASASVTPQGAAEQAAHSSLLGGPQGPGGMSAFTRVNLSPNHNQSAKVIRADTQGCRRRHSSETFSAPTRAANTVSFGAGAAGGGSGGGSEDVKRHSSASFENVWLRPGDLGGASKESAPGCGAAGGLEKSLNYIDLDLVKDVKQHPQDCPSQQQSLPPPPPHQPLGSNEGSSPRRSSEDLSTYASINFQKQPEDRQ
# UniProt P15127, residues 764-1383: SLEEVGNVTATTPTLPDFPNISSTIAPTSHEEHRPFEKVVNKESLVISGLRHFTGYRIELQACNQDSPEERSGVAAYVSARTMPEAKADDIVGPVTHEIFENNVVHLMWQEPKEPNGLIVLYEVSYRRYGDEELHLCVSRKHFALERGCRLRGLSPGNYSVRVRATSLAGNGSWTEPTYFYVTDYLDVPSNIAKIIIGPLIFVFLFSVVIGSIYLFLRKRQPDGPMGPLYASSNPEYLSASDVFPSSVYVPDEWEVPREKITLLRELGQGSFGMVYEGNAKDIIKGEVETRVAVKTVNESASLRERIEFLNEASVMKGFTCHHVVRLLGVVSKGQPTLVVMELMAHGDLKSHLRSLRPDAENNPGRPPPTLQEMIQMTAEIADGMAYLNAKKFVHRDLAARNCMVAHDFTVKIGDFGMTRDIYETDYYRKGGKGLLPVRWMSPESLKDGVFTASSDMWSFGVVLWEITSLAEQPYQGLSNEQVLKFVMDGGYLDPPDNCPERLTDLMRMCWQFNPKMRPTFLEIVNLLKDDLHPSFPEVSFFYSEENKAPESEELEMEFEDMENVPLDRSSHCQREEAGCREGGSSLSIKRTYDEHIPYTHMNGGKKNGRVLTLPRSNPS
# No constants are given. Whether binding was seen depends on the method and setting. In cells and extracts the contact can be indirect. Some binding calls cover weakened binding; strength is not graded here.
# Assays:
# [1] = molecular target: insulin signal substrate 1 (rat (endogenous in primary cortical neurons)) (UniProt P35570); test: co-IP; lysates from primary rat neural cultures (control or treated with ferrous chloride) incubated with primary antibody (anti-IRβ or anti-IRS-1) overnight at 4°C, captured on Protein A and G Agarose, Western blot
# [2] = molecular target: insulin receptor β (rat (endogenous in primary cortical neurons)) (UniProt P15127); test: as above
binding [1],binding [2],Substance
binds,–,phosphoinositide 3-kinase p85α (from UniProt Q63787-1 1-724)
–,binds,insulin signal substrate 1 (from UniProt P35570 1-1235)
